Measurements taken from article PMC11001918.
Results are given in words; binding and its absence hold for the method and conditions named. In cells and extracts the contact can be indirect. Sequences can lack the tags named with a protein.

Amino acid sequences for entries named in this document (tags omitted).
UniProt P13645: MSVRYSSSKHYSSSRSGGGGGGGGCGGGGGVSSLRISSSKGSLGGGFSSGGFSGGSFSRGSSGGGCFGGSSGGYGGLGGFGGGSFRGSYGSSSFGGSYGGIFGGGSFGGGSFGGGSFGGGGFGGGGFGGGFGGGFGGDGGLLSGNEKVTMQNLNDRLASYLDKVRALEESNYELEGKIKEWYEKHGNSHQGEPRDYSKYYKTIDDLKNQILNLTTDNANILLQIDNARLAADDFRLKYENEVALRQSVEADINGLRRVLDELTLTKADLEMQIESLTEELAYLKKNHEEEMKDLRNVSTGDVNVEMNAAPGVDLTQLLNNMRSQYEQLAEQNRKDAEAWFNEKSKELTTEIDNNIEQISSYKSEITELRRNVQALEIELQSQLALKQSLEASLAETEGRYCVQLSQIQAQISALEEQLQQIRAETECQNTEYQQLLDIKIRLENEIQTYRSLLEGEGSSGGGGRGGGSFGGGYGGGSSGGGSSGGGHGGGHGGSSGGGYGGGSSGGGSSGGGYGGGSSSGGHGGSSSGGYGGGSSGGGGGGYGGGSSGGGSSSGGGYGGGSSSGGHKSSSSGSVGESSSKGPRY
UniProt P13647: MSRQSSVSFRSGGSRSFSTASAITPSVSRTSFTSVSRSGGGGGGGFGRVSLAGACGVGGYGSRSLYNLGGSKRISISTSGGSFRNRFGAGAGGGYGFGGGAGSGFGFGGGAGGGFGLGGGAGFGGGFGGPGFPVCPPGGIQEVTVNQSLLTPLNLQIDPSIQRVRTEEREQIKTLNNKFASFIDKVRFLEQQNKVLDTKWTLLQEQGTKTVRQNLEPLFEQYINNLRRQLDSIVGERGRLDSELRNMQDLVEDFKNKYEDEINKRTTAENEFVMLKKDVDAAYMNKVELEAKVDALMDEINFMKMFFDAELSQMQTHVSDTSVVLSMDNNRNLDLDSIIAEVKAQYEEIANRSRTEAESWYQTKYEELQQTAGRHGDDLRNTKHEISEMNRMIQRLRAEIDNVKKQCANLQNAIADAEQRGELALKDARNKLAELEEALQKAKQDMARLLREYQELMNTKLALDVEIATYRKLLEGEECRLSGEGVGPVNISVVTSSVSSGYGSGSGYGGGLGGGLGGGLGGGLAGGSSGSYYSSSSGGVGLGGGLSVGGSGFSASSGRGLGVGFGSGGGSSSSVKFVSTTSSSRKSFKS

T1: Transglutaminase 3 (human (endogenous in A431)) (UniProt Q08188)
T1 sequence: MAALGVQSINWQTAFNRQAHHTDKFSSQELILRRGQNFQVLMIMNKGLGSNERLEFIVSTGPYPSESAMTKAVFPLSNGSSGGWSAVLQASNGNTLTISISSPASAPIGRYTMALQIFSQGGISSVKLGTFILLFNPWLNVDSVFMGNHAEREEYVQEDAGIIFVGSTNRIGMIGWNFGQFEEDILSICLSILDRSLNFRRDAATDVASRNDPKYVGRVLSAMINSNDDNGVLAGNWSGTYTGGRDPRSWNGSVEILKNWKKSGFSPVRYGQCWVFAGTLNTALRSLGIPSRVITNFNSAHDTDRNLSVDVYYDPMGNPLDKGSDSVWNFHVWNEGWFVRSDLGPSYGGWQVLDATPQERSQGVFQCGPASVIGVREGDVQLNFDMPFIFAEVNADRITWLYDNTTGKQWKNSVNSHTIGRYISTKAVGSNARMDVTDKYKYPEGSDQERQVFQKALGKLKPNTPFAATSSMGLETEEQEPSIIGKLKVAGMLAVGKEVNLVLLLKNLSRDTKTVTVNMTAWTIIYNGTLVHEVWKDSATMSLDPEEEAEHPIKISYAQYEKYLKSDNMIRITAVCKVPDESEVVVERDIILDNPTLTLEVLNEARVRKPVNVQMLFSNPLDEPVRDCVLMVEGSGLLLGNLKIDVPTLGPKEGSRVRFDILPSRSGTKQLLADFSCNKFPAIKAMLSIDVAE

B1: involucrin (protein, UniProt P07476 1-585)
chain: MSQQHTLPVTLSPALSQELLKTVPPPVNTHQEQMKQPTPLPPPCQKVPVELPVEVPSKQEEKHMTAVKGLPEQECEQQQKEPQEQELQQQHWEQHEEYQKAENPEQQLKQEKTQRDQQLNKQLEEEKKLLDQQLDQELVKRDEQLGMKKEQLLELPEQQEGHLKHLEQQEGQLKHPEQQEGQLELPEQQEGQLELPEQQEGQLELPEQQEGQLELPEQQEGQLELPEQQEGQLELPQQQEGQLELSEQQEGQLELSEQQEGQLKHLEHQEGQLEVPEEQMGQLKYLEQQEGQLKHLDQQEKQPELPEQQMGQLKHLEQQEGQPKHLEQQEGQLEQLEEQEGQLKHLEQQEGQLEHLEHQEGQLGLPEQQVLQLKQLEKQQGQPKHLEEEEGQLKHLVQQEGQLKHLVQQEGQLEQQERQVEHLEQQVGQLKHLEEQEGQLKHLEQQQGQLEVPEQQVGQPKNLEQEEKQLELPEQQEGQVKHLEKQEAQLELPEQQVGQPKHLEQQEKHLEHPEQQDGQLKHLEQQEGQLKDLEQQKGQLEQPVFAPAPGQVQDIQPALPTKGEVLLPVEHQQQKQEVQWPPKHK
B2: loricrin (protein, UniProt P23490 1-312)
chain: MSYQKKQPTPQPPVDCVKTSGGGGGGGGSGGGGCGFFGGGGSGGGSSGSGCGYSGGGGYSGGGCGGGSSGGGGGGGIGGCGGGSGGSVKYSGGGGSSGGGSGCFSSGGGGSGCFSSGGGGSSGGGSGCFSSGGGGSSGGGSGCFSSGGGGFSGQAVQCQSYGGVSSGGSSGGGSGCFSSGGGGGSVCGYSGGGSGCGGGSSGGSGSGYVSSQQVTQTSCAPQPSYGGGSSGGGGSGGSGCFSSGGGGGSSGCGGGSSGIGSGCIISGGGSVCGGGSSGGGGGGSSVGGSGSGKGVPICHQTQQKQAPTWPSK

Target: T1, Transglutaminase 3 (human (endogenous in A431))
Test: co-IP; cell lysate in IP lysis buffer with EDTA-free protease inhibitors, incubated with protein A/G beads and indicated antibodies overnight at 4 °C, washed thrice, western blotting; A431 cells according to the results and legend (the methods name HaCaT cells)

**Q.** For “Keratin (KRT) 10 (from UniProt P13645 1-584)”, which binding is on record?
**A.** Its binding is “no binding”.

**Q.** With KRT5 (from UniProt P13647 1-590) as the molecule, how does the binding read?
**A.** The binding was “no binding”.

**Q.** Which binding does the source give for B1 here?
**A.** The binding was “no binding”.

**Q.** Which binding does the source give for B2 here?
**A.** The binding was “no binding”.
